Data published in PMC6162527.
Results are given in words; binding and its absence hold for the method and conditions named. Binding seen in cells or lysates may run through a third protein. Some results given as binding are weak or reduced against the parent protein; the word gives no strength. One block for each molecule: values may come before it.

Sequences of proteins named here, by UniProt entry; tags and fusion partners are left off.
UniProt Q96D31: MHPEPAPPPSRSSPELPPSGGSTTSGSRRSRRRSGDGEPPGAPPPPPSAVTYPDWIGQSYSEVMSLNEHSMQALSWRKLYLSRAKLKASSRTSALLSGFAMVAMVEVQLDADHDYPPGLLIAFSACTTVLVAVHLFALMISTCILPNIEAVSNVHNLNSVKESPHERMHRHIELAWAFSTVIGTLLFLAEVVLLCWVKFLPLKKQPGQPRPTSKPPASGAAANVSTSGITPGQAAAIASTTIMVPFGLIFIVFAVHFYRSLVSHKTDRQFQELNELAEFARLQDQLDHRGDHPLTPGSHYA

Key:
[1] = biological target: T1, TRPC6 (human (endogenous in MCF7 and MDA-MB-231)) (UniProt Q9Y210); experiment: co-IP; whole cell lysates (NP-40 buffer) of MCF7 and MDA-MB-231 cells, resting or treated with 1 uM TG for 3 min; immunoprecipitated with anti-TRPC6 antibody and protein A-agarose overnight at 4 C; blotted with anti-Orai1 or anti-Orai3 antibody
T1 sequence: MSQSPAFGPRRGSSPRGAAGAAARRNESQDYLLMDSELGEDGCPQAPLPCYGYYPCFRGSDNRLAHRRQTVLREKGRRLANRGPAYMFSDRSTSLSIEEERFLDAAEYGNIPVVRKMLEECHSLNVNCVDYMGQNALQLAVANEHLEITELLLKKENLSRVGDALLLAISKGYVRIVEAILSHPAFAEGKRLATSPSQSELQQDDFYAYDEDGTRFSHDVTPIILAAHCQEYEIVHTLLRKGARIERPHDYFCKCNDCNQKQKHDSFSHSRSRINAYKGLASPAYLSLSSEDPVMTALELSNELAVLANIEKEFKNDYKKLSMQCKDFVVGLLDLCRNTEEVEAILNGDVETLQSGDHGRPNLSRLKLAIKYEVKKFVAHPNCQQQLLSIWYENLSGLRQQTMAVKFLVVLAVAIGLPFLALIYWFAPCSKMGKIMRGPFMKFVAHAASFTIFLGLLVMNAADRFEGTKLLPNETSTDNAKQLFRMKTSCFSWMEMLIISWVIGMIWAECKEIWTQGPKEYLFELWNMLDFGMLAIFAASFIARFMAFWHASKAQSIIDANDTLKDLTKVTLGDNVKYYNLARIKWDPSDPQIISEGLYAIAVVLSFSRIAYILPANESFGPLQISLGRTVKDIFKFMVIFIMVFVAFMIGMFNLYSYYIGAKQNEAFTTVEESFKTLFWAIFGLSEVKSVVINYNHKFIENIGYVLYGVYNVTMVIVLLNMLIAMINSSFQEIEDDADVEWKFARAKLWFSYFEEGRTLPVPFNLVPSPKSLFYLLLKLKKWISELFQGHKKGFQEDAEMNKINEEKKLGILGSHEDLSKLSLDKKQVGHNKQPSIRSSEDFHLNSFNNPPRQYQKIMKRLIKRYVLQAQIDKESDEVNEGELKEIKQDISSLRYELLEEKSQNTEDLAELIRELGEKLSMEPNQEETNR

[2] = biological target: Orai1 (human (endogenous in MCF7 and MDA-MB-231)) (UniProt Q96D31); experiment: co-IP; cell lysates immunoprecipitated with anti-Orai1 or anti-Orai3 antibody, blotted with anti-TRPC6 antibody (Figure S1)

- binding [1]: binds
Molecule: Orai1 (from UniProt Q96D31 1-301)

- binding [2]: binds
B1: TRPC6 (protein, UniProt Q9Y210 1-931)
chain: T1 sequence
